Measurements: patent publication EP2338492A1, “Methods and compositions for the treatment of alzheimer” (Universidad del Pais Vasco, priority 2009, dated 2011)
At least one compound was matched to its structure with a doubt left.

Tests used:
Type in all cases: cell-based, Sprague-Dawley rat
neurons = experiment: Measurement of mitochondrial Ca2+ (Rhod-2 AM); conditions: Aβ 5 µM together with NMDA receptor antagonist
Description: (§1) Primary neuron cultures were obtained from the cortical lobes of E18 Sprague-Dawley rat embryos according to previously described procedures (Gottlieb M. et al. 2006. Neurobiol. Dis. 23 374-386.) Cells were resuspended in B27 Neurobasal medium plus 10% FBS (Sigma; St Louis, MO, USA) and then seeded onto poly-1-ornithine-coated glass coverslips at 1x10^5 cells per coverslip (12 mm in diameter) and 48-well plates at 1.5 x 10^5 per well. One day later, the medium was replaced by serum-free-, B27-supplemented Neurobasal medium. The cultures were essentially free of astrocytes and microglia; they were maintained at 37°C and 5% CO2. Cultures were used 8-10 days after plating.
Rhod-2 AM (Molecular Probes, Invitrogen, Barcelona, Spain) was used to measure mitochondrial Ca^2+ according to the previous procedure with modifications (G. Hajnóczky, L.D. et al. 1995. Cell 82 415-424) Rhod2-AM has a net positive charge, which facilitates its sequestration into mitochondria due to membrane potential-driven uptake. […] The residual cytosolic fraction of the dye was eliminated when the cells were kept in culture for an additional 18h after loading, whereas the mitochondrial dye fluorescence was maintained. Fluorescence images of rhod-2 were acquired using 550 nm excitation and 590 nm emission. The fluorescence of rhod-2 was not calibrated in terms of [Ca^2+]mit since it is not a ratiometric dye.

[1] = test system: cultured cortical neurons; experiment: Ca2+ imaging in the cytosol (fura-2 AM); conditions: Aβ 5 µM; coapplication; NMDA antagonists n=70; voltage-gated Ca2+ channel inhibitors n=66
Description: as §1
[Ca^2+]¡ was determined according to the method described previously (G. Grynkiewicz, et al. 1985. J. Biol. Chem. 260:3440-3450). Neurons were loaded with fura-2 AM (5 µM; Molecular Probes, Invitrogen, Barcelona, Spain) in culture medium for 30 min at 37°C. Cells were washed in HBSS containing 20 mM HEPES, pH 7.4, 10 mM glucose, and 2 mM CaCl2 (incubation buffer) for 10 min at room temperature. Experiments were performed in a coverslip chamber continuously perfused with incubation buffer at 4 ml/min. […] Data were analyzed with Excel (Microsoft, Seattle, WA, USA) and Prism (GraphPad Software, San Diego, CA, USA) software.

Cortical neurons = experiment: Cell viability and toxicity assay (LDH release); conditions: Aβ 5 µM, 24 h; AP5 100 µM, MK801 50 µM, memantine 50 µM, CNQX 30 µM, ZVAD-F 50 µM, DEVD 100 µM, DPQ 30 µM; added 30 min before Aβ
Description: as §1
Antagonists and inhibitors were added to the cultures 30 min before the Aβ. Twenty four hours after drug application, cellular damage was estimated by measuring the level of lactate dehydrogenase released (LDH; Cytotox 96®, Promega, Madison, WI) from damaged cells into the culture media. Data were normalized to the activity of LDH released from vehicle-treated cells (100%) and calculated as a percentage of the control. Results were expressed as the means ± SEM of at least three independent experiments performed in triplicates.

Row | Structure (SMILES) | effect on Aβ-induced [Ca2+]mit rise (neurons) | effect on Aβ-induced increase in [Ca2+]i [1] | effect on Aβ toxicity (Aβ-induced cell death) (Cortical neurons)
1 | CC12CC3CC(C)(C1)CC(N)(C3)C2 [memantine, Dimethyladamantan] | reduced | nearly abolished | greatly attenuated
2 | COC(=O)C1=C(C)NC(C)=C(C(=O)OC)C1c1ccccc1[N+](=O)[O-] [nifedipine] |  | ineffective | 
